The list shows a part of the results. These are further read-outs of the screen, such as a control signal, another cell line or another target. No call is given for them. The list favours compounds with an active or inconclusive main result. Words in brackets tell the shape of the fitted curve; partial curves, single points and poor fits give uncertain potencies.
Assay: qHTS Assay for Lipid Storage Modulators in Drosophila S3 Cells;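 as to cell number change: cells counted by Cell Tracker Red CMTPX staining in the red channel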
Conditions: BODIPY lipid droplet fluorescence, 18-24 h; for cell number change: measured here: cell count max response, cells fed with added oleic acid
How it was run: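 Laser-scanning cytometry quantifies lipid droplet accumulation (500–530 nm total intensity; droplet/cell object ratio) in oleic acid-fed (400 uM added) Drosophila S3 cells treated with a concentration series. 20 uM Triacsin C defined 100% inhibition.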

[1] = measured here: lipid fluorescence (Fed channel) AC50, cells fed with added oleic acid
[2] = measured here: cell number channel AC50, cells fed with added oleic acid

| Structure (SMILES) | cell number change [%] | AC50 [1] | AC50 [2] |
| --- | --- | --- | --- |
| CCN(C(=O)CN1CCN(C)CC1)c1c(N)n(Cc2ccccc2)c(=O)[nH]c1=O | -10.2 | 0.0651 µM [rising, full curve, poor fit] | – |
| OC(COc1ccc(-c2ccccc2)cc1)CN1CCOCC1 (centres undefined) | -8.3 | 1.84 µM [falling, partial curve] | – |
| Fc1ccc(Cn2c(SCc3ccc(F)c(F)c3)nnc2C(F)(F)F)cc1 | 35.1 | – | 0.291 µM [rising, full curve, poor fit] |
| N#Cc1ccc(C(=O)OCC(=O)NC2CCCC2)cc1 | 1.41 | – | 6.51 µM [rising, single point] |
| COCCCNc1nc2c(c(=O)[nH]c(=O)n2C)n1CCCc1ccccc1 | 1.6 | 29.1 µM [rising, single point] | – |
| COc1ccc(-c2noc(C3CCCN(C(=O)c4cccc(F)c4)C3)n2)cc1 (centres undefined) | 3.28 | 0.13 µM [falling, full curve, poor fit] | 4.61 µM [rising, single point] |
| O=C(NCc1cccc(C(F)(F)F)c1)C1CCC(=O)N(C2CCCCCC2)C1 (centres undefined) | 21 | 20.6 µM [rising, partial curve] | – |
| N#Cc1ccc(S(=O)(=O)NCC(=O)OCC(=O)N2CCCC2=O)cc1 | -0.694 | 0.0517 µM [falling, full curve] | – |
| Cc1ccc(S(=O)(=O)N2CCN(CC(O)COc3ccccc3)CC2)cc1 (centres undefined) | 6.67 | – | – |
| CCCOc1ccc(OCCn2nc(C(=O)O)c3ccccc3c2=O)cc1 | 57.3 | 29.1 µM [rising, partial curve, poor fit] | 1.84 µM [rising, partial curve] |
| COCCN(C(=O)COC(=O)CCCOc1ccc(OC)cc1)c1c(N)n(Cc2ccccc2)c(=O)[nH]c1=O | -14 | 0.116 µM [falling, full curve, poor fit] | 0.092 µM [falling, full curve, poor fit] |
| CC(=O)NC1(C(F)(F)F)C(=O)Nc2c1c(=O)[nH]c(=O)n2Cc1ccco1 (centres undefined) | -1.27 | – | – |
| COc1ccc(/C=C(\C#N)C(=O)C(C)(C)n2cncn2)cc1 | -8.62 | – | – |
| NC(=O)CC(NC(=O)c1ccccc1)c1ccc(NC2CCCCCCC2)c([N+](=O)[O-])c1 (centres undefined) | 17.2 | – | – |
| Fc1ccc(F)c(C2=NNC(=Nc3ccccc3F)SC2)c1 | -5.31 | – | – |
| O=C(Cc1n[nH]c(=O)c2ccccc12)N1CCN(c2ccc(F)cc2)CC1 | 33.1 | – | – |
| Nc1nc(N)nc(-c2cccc(Cl)c2Cl)n1 | 28.9 | 20.6 µM [rising, partial curve, poor fit] | – |
| CCOCCCn1c(=S)[nH]c2cc(C(=O)NCC(OC)OC)ccc2c1=O | 18 | 0.411 µM [falling, single point] | – |
| COCCNC(=O)CSc1nc2ccccc2c2nc(C)nn12 | -23.8 | 2.31 µM [falling, full curve, poor fit] | – |
| COCc1nnc(NC(=O)CC(c2ccccc2)c2ccccc2)s1 | -8.65 | 0.58 µM [falling, full curve, poor fit] | – |

3 entries from above in another layout:
Structure (SMILES)	cell number change [%]	AC50 [1]	AC50 [2]
Fc1ccc(Cn2c(SCc3ccc(F)c(F)c3)nnc2C(F)(F)F)cc1	35.1	–	0.291 µM [rising, full curve, poor fit]
N#Cc1ccc(C(=O)OCC(=O)NC2CCCC2)cc1	1.41	–	6.51 µM [rising, single point]
COCCCNc1nc2c(c(=O)[nH]c(=O)n2C)n1CCCc1ccccc1	1.6	29.1 µM [rising, single point]	–

Single records, from the list above.
`Cc1ccc(S(=O)(=O)N2CCN(CC(O)COc3ccccc3)CC2)cc1` (centres undefined) is listed as cell number change [%]: 6.67
`N#Cc1ccc(S(=O)(=O)NCC(=O)OCC(=O)N2CCCC2=O)cc1` is listed as cell number change [%]: -0.694; AC50 [1]: 0.0517 µM [falling, full curve]

More compounds

| Structure (SMILES) | cell number change [%] | AC50 [1] | AC50 [2] |
| --- | --- | --- | --- |
| Cc1cc(NS(=O)(=O)c2ccc(NC(=O)CCCOc3ccccc3)cc2)no1 | 4.61 | 1.46 µM [falling, full curve] | – |
| CC1CCCC(C)N1C(=O)COc1ccccc1F (centres undefined) | -43.3 | 29.1 µM [falling, single point] | 29.1 µM [falling, single point] |
| COC(=O)c1oc2ccccc2c1N | 13 | 29.1 µM [rising, single point] | – |
| Cc1ccc(C(=O)N2CCc3ccccc32)cc1NC(=O)c1ccco1 | 77.2 | 20.6 µM [rising, single point] | 23.1 µM [rising, single point] |
| O=C(Nc1nc(-c2ccccn2)cs1)c1ccc(Cl)s1 | -48.5 | 2.06 µM [falling, partial curve] | 2.06 µM [falling, partial curve] |
| O=[N+]([O-])/C(C(Cl)=C(Cl)Cl)=C1\Nc2ccccc2O1 | -4.86 | 1.46 µM [falling, full curve] | – |
| CCOc1ccc(NC(=O)COC(=O)CCC(=O)c2cccs2)cc1 | -16.2 | 23.1 µM [rising, single point] | – |
| Cc1nnc2sc(-c3ccc(-c4ccc(Cl)c(C(F)(F)F)c4)o3)nn12 | -59.8 | 8.2 µM [falling, partial curve] | 6.51 µM [falling, full curve] |
| COc1ccccc1-n1c(SCC(=O)Nc2cccc(C)c2)nc2c(c1=O)SCC2 | 37.4 | – | 13 µM [rising, partial curve, poor fit] |
| Fc1c(F)c(F)c(N=Cc2ccc3ncccc3c2)c(F)c1F | 100 | – | 6.51 µM [rising, full curve] |
| Cc1ccc(Oc2ccc(-c3nnc(-c4ccccc4)o3)cc2[N+](=O)[O-])cc1C | -31.4 | 1.84 µM [falling, partial curve, poor fit] | 6.51 µM [falling, partial curve] |
| CC(=O)c1c(O)cc(=O)n(-c2ccccc2)c1-c1cccc2ccccc12 | 36.2 | – | 0.411 µM [rising, full curve, poor fit] |
| C/C(=N/NS(=O)(=O)c1ccc(Br)cc1)c1ccc(C)o1 | -20.8 | – | – |
| CCCCNC(=O)NS(=O)(=O)c1ccc(NC(=O)C(NC(N)=O)C(C)CC)cc1 (centres undefined) | -6.42 | 0.00517 µM [falling, full curve, poor fit] | 0.461 µM [falling, single point] |
| Cc1sc2ncnc(NCc3ccco3)c2c1C | -39.6 | 29.1 µM [falling, single point] | 4.61 µM [falling, partial curve, poor fit] |
| CCOC(=O)c1c(NC(=O)CNCCO)sc(C)c1C | -12.1 | 0.00517 µM [rising, full curve, poor fit] | – |
| Cc1cnc([N+](=O)[O-])n1CCOC(=O)NC(=O)c1cccc(F)c1 | -25.6 | – | – |
| COc1cc(-c2nc(CCNC(=O)c3ccco3)cs2)cc(OC)c1OC | – | 25.9 µM [falling, partial curve] | – |
| O=C(NC(=S)Nc1ccc(CN2CCCCC2)cc1)c1ccco1 | -32 | 0.82 µM [falling, full curve] | 0.92 µM [falling, full curve, poor fit] |
| Cn1c(SCC(=O)N2CCc3ccccc32)nc2cccnc21 | -1.7 | 4.11 µM [rising, single point] | 4.61 µM [rising, single point] |

| Structure (SMILES) | cell number change [%] | AC50 [1] | AC50 [2] |
| --- | --- | --- | --- |
| COc1ccc(COC(=O)CCS(=O)(=O)c2ccc(C)cc2)cc1F | – | – | 1.84 µM [rising, partial curve] |
| COc1ccc(CC(=O)N(Cc2ccccc2)C(C)C)cc1 | -38.6 | 5.17 µM [falling, single point] | 13 µM [falling, partial curve, poor fit] |
| Cc1cc(C)n(CC(=O)N/N=C/c2ccccn2)n1 | 60.2 | 18.4 µM [rising, single point] | 29.1 µM [rising, single point] |
| CCCCNC(=O)Nc1nnc(-c2ccc(OCC)cc2)o1 | – | 18.4 µM [rising, partial curve] | – |
| CC(=O)Nc1cccc(C(=O)N/N=C/c2cccnc2)c1 | 9.68 | – | – |
| COc1ccc(-c2ccc(N(C)C)cc2)cc1[C@H]1[C@H]2C=CC[C@@H](C)[C@@H]2C(=O)N1Cc1ccccc1 | 17.3 | 18.4 µM [rising, single point] | – |
| COc1ccccc1NC(=O)C1CC(=O)OC1c1ccccc1 (centres undefined) | -3.25 | – | – |
| CCOCCCNC(=O)C1CCC(CNS(=O)(=O)c2ccc(Cl)cc2)CC1 (centres undefined) | – | 4.11 µM [rising, single point] | 1.3 µM [rising, full curve, poor fit] |
| O=C(O)C1CCCN(S(=O)(=O)Cc2ccccc2)C1 (centres undefined) | -27.7 | 29.1 µM [falling, single point] | – |
| COCCCn1c(SCC(=O)Nc2ccccc2F)nnc1-c1ccoc1C | -0.855 | – | – |
| C=CCNc1nnc(SCC(=O)Nc2ccccc2OC)c2ccccc12 | 14.4 | – | – |
| CC(C)OCCCNC(=O)c1ccc2c(c1)S(=O)(=O)c1ccccc1C2=O | -23.7 | 1.46 µM [falling, full curve] | – |
| Cc1ccc(Cn2c(SCC(N)=O)nc3c2c(=O)n(C)c(=O)n3C)cc1 | 94.3 | – | 18.4 µM [rising, single point] |
| N#C/C(=C/c1ccc(N2CCOCC2)o1)c1ccc(Cl)cc1 | -39.3 | 23.1 µM [falling, partial curve] | 11.6 µM [falling, partial curve] |
| O=C(NCCC1=CCCCC1)c1ccc(F)cc1 | 83.3 | – | 29.1 µM [rising, single point] |
| Fc1ccccc1/C=C1\CCCC2=C1NC(=S)NC2c1ccccc1F (centres undefined) | 25.8 | 0.13 µM [rising, single point] | – |
| Cc1ccccc1CSCC(=O)NCc1ccco1 | -2.24 | 0.103 µM [falling, full curve, poor fit] | – |
| COc1ccc(COc2cc(-c3cccc(OC)c3)nc3ccc(NC(=O)C(C)C)cc23)cc1 | -36.3 | – | 29.1 µM [falling, single point] |
| NC(=O)CSc1nnc(COc2ccccc2)n1CCc1ccccc1 | 19.8 | 2.91 µM [rising, full curve] | – |
| O=C(O)Cc1ccc(NC(=O)C2CCCCC2C(=O)O)cc1 (centres undefined) | -13.9 | – | – |
